The target of assay [1] is GFP-CAV1 (Caveolin-1, alpha-CAV1) (mouse) (UniProt P49817). As to the kind of experiment: sucrose gradient sedimentation; as the TX gradient (0.5% Triton X-100), but protein expressed for 3 h in cells treated with the proteasome inhibitor MG132 (50 uM).
For assay [2] the target is unchanged. As to the kind of experiment: sucrose gradient sedimentation; transfected COS-1 cells (3 h expression, untreated) solubilized with 0.2% Triton X-100 + 0.4% SDS (TX+SDS), 10-40% sucrose step gradient, 55,000 rpm, 4°C; fractions immunoblotted with anti-GFP. (Immunoblotting shows a protein as a band on a membrane.)
Assay [3] has the same target. The assay can be described thus: sucrose gradient sedimentation; transfected COS-1 cells (3 h expression, untreated) solubilized with 0.5% Triton X-100 (TX), loaded on top of a 10-40% sucrose step gradient, ultracentrifuged at 55,000 rpm, 4°C; seven fractions immunoblotted with anti-GFP.
The target in assay [4] is GFP-CAV1-P132L (mouse) (UniProt P49817). The assay can be described thus: sucrose gradient sedimentation; as the TX gradient (0.5% Triton X-100), but protein expressed for 3 h in cells treated with the proteasome inhibitor MG132 (50 uM).
In assay [5] the target is GFP-CAV1-P158 (CAV1 P158PfsX22 frameshift mutant) (mouse) (UniProt P49817). Described as above.
The target is the same in assay [6]. The assay can be described thus: sucrose gradient sedimentation; transfected COS-1 cells (3 h expression, untreated) solubilized with 0.5% Triton X-100 (TX), loaded on top of a 10-40% sucrose step gradient, ultracentrifuged at 55,000 rpm, 4°C; seven fractions immunoblotted with anti-GFP.

Substitutions are numbered along the chain they refer to. Numbers in names are those of the source. Results are given in words; binding and its absence hold for the method and conditions named. Some binding calls cover weakened binding; strength is not graded here. Sequences can lack the tags named with a protein.

B1: GFP-CAV1 (Caveolin-1, alpha-CAV1) (protein, UniProt P49817 1-178)
chain: MSGGKYVDSEGHLYTVPIREQGNIYKPNNKAMADEVTEKQVYDAHTKEIDLVNRDPKHLNDDVVKIDFEDVIAEPEGTHSFDGIWKASFTTFTVTKYWFYRLLSTIFGIPMALIWGIYFAILSFLHIWAVVPCIKSFLIEIQCISRVYSIYVHTFCDPLFEAIGKIFSNIRISTQKEI
B1: the binding result in assay [1], in assay [2] and in assay [3] was “binds” each time.

B2: GFP-CAV1-P132L (protein, UniProt P49817 1-178)
chain: B1 chain with P132L
Consider B2, for which the binding entry in assay [4] is “binds”.

B3: GFP-CAV1-P158 (CAV1 P158PfsX22 frameshift mutant) (protein, UniProt P49817 1-157)
chain: MSGGKYVDSEGHLYTVPIREQGNIYKPNNKAMADEVTEKQVYDAHTKEIDLVNRDPKHLNDDVVKIDFEDVIAEPEGTHSFDGIWKASFTTFTVTKYWFYRLLSTIFGIPMALIWGIYFAILSFLHIWAVVPCIKSFLIEIQCISRVYSIYVHTFCDPSLKLLGKYSAMSASTCRKKYK
As for B3, the binding entry in assay [5] and in assay [6] was “binds” in each case.

(Values after publication PMC10394380.)
